The values that follow come from patent publication US20160355601A1.

No constants are given. Whether binding was seen depends on the method and setting. Some entries that bind do so weakly or less than the wild type. Where a sequence is shown, tags or fusion partners need not be part of it.

The target in experiment [1] is T1, histidin-tagged extracellular domain (ECD) of murine TLR2, mTLR2 25-587-His (murine) (UniProt Q9QUN7).
T1 sequence: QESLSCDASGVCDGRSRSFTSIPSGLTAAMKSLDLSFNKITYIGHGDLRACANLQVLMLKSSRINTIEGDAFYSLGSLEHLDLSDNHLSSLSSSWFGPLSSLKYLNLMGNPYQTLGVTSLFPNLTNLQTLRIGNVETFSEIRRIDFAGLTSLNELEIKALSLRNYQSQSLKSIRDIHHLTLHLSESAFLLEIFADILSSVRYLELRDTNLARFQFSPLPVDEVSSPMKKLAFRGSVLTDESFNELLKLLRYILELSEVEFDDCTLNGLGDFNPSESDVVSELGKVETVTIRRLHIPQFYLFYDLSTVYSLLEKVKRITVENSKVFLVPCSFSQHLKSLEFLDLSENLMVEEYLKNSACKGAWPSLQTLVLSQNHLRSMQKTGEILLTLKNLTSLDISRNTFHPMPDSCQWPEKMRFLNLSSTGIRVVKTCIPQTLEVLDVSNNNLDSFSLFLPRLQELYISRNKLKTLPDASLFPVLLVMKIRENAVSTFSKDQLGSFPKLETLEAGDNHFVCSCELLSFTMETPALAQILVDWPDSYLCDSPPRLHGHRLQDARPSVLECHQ
Nature of the experiment: complex formation and purification for negative stain EM.

Experiment [2] deals with T1, histidin-tagged extracellular domain (ECD) of murine TLR2, mTLR2 25-587-His (murine). Nature of the experiment: negative stain EM density map with docked structures, overlay with TLR2/TLR1 and TLR2/TLR6 complexes.

B1: OPN-305 Fab (Fab, V domains shown)
VH: QVQLVQSGSELKKPGASVKLSCKASGFTFTTYGINWVRQAPGQGLEWIGWIYPRDGSTNFNENFKDRATITVDTSASTAYMELSSLRSEDTAVYFCARLTGGTFLDYWGQGTTVTVSS
VL: DIVLTQSPATLSLSPGERATLSCRASESVEYYGTSLMQWYQQKPGQPPKLLIFGASNVESGVPDRFSGSGSGTDFTLKISRVEAEDVGMYFCQQSRKLPWTFGGGTKVEIK
As to B1, the binding entry in experiment [1] and in experiment [2] was “binds” each time.
